For 18 molecules, AC50 results are on record in PubChem BioAssay AID493014 (National Center for Advancing Translational Sciences (NCATS), 2011).

The experiment can be described thus: qHTS Assay to Find Inhibitors of Chronic Active B-Cell Receptor Signaling. Conditions: ABC-DLBCL IkBa-CBG/CBR reporter, luminescence ratio (green luciferase fused to IkBa over red control in TMD8 lymphoma cells), 4 h. A digest of the protocol:
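TMD8 human ABC-DLBCL cells with doxycycline-inducible IκBα–green luciferase fusion and unfused red luciferase, in 0.5% FBS medium; compounds up to 46 uM, 4 h at 37C. Green/red luminescence ratio, filter-overlap corrected, fitted to concentration-response curves.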
(In general: Quantitative high-throughput screening tests each substance at several concentrations.)

The mark [1] stands for this setting: measured here: CBR red luminescence, cell number.

The list shows a part of the results. These are further read-outs of the screen, such as a control signal, another cell line or another target. No call is given for them. The list favours compounds with an active or inconclusive main result. Words in brackets tell the shape of the fitted curve; partial curves, single points and poor fits give uncertain potencies.

Usually AC50 stands for the midpoint of the concentration-response curve, whichever way the signal moves. Regarding `Cc1nn2c(N)c(-c3ccccc3)cnc2c1-c1ccccc1`, the AC50 under setting [1] is 1 µM [rising, full curve, poor fit].

Consider `Cc1ccc(OCC(=O)Nc2ccc3c(c2)OCO3)cc1C`, for which the AC50 under setting [1] was 12.6 µM [falling, partial curve].

As to `CCSC1=NC(C)(C)C=C(/C=C/c2ccc(Cl)cc2Cl)N1`, the half-maximal activity concentration (AC50) was 13 µM [falling, partial curve] under setting [1] and 14.6 µM [rising, partial curve, poor fit] (measured here: IkBa-CBG green luminescence).

Regarding `O=C(CN1C(=O)c2ccccc2S1(=O)=O)Nc1ccon1`, under setting [1], the half-maximal activity concentration (AC50) is 5.8 µM [falling, single point].

With `COc1ccc(C(=O)Nc2nnc(SCC(=O)Nc3ccc(NC(C)=O)cc3)s2)c(OC)c1`, the half-maximal activity concentration (AC50) under setting [1] was 0.794 µM [falling, full curve, poor fit].

As to `Cc1cc(NCc2ccccc2)n2ncc(-c3ccccc3)c2n1`, under setting [1], the concentration at half-maximal activity (AC50) was 12.6 µM [falling, partial curve, poor fit].

Turning to `CN(CCc1cn[nH]c1)Cc1nc(Cc2ccccc2)no1`, the concentration at half-maximal activity (AC50) under setting [1] is 4.47 µM [rising, full curve, poor fit].

In the case of `c1ccc(Oc2ncnc3sccc23)cc1`, the AC50 under setting [1] was 0.398 µM [rising, full curve, poor fit].

Regarding `FC(F)(F)c1nc(N2CCCC2)ncc1-c1nnnn1-c1ccc(Cl)cc1`, the AC50 under setting [1] is 32.6 µM [falling, single point].

For the molecule `N#C/C(=C(/O)c1ccco1)c1nc2ccccc2[nH]1`, under setting [1], the AC50 was 2.82 µM [falling, partial curve, poor fit].

In the case of `COc1ccccc1NC(=O)CSc1nc2ccccc2c(=O)n1C`, the AC50 under setting [1] was 3.98 µM [falling, partial curve, poor fit].

On to `O=c1c(-c2ccc(O)cc2)coc2cc(OC3OC(CO)C(O)C(O)C3O)cc(O)c12` (centres undefined), for which the half-maximal activity concentration (AC50) under setting [1] is 10.3 µM [rising, partial curve, poor fit].

In the case of `Fc1cccc(COc2ccccc2CNc2ccccc2)c1`, under setting [1], the concentration at half-maximal activity (AC50) is 29.1 µM [rising, single point].

Regarding `Cc1ccc2nc(NC(=O)C3CCN(C(=O)c4ccc(F)cc4)CC3)sc2c1`, the half-maximal activity concentration (AC50) under setting [1] is 3.16 µM [falling, partial curve, poor fit].

As to `Cc1ccc2sc(NC(=O)CN3C(=O)CCC3=O)nc2c1C`, the concentration at half-maximal activity (AC50) under setting [1] is 29.1 µM [falling, single point].

For `Cc1[nH]c(C)c(S(=O)(=O)N2CCN(c3ccccc3)CC2)c1C(=O)N1CCCC1`, the half-maximal activity concentration (AC50) under setting [1] is 6.31 µM [rising, single point].

With `NC(=O)CSc1nc2ccccc2n1Cc1ccccc1`, the AC50 under setting [1] was 8.2 µM [falling, partial curve, poor fit].

As to `CCn1cc(Br)c(C(=O)Nc2ccc(OC)cc2)n1`, the half-maximal activity concentration (AC50) under setting [1] is 0.58 µM [rising, partial curve, poor fit].
